Data as given in PubChem BioAssay AID1671195 (Yale University, 2021)
Screen: 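Knockdowns that increase or decrease uptake of fluorescent LDL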 (primary screen). Cell system: human Huh7 hepatoma cells. Reagents: siRNA pool against human genes, 18 nM. Timing: about 2 to 2.5 days of knockdown, then 8 h LDL uptake. Conditions: DiI-labelled LDL at 30 µg/ml for 8 h, in lipoprotein-deficient serum medium. Measured: 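Per-cell DiI-LDL intensity by automated imaging; well means scaled to the plate median and given as a robust z-score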. Direction: robust z-score: higher = more LDL uptake after knockdown. Call rule: 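a gene counts as active if at least two replicate z-scores exceed ±2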.
Shown is a random part of about 22,000 reagents tested. About 1,510 of them (6.9%) count as active. 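Active includes knockdowns raising or lowering LDL uptake; positive z-scores mean more uptake, negative mean less.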

MED4 (mediator complex subunit 4) [SID442901402]: robust z-score, replicate 1 = -0.753; robust z-score, replicate 2 = -1.36; robust z-score, replicate 3 = -0.571; call = inactive
PRR14L (proline rich 14 like) [SID442887452]: robust z-score, replicate 1 = 1.01; robust z-score, replicate 2 = 0.871; robust z-score, replicate 3 = 0.85; call = inactive
OR3A2 (olfactory receptor family 3 subfamily A member 2) [SID442889211]: robust z-score, replicate 1 = 0.46; robust z-score, replicate 2 = 0.529; robust z-score, replicate 3 = 0.796; call = inactive
CLN3 (CLN3 lysosomal/endosomal transmembrane protein, battenin) [SID442886151]: robust z-score, replicate 1 = 1.37; robust z-score, replicate 2 = 1.38; robust z-score, replicate 3 = 1; call = inactive
OR13C4 (olfactory receptor family 13 subfamily C member 4) [SID442895734]: robust z-score, replicate 1 = 0.146; robust z-score, replicate 2 = -0.558; robust z-score, replicate 3 = -0.191; call = inactive
PCBP2 (poly(rC) binding protein 2) [SID442886592]: robust z-score, replicate 1 = 0.595; robust z-score, replicate 2 = 1.16; robust z-score, replicate 3 = 1.59; call = inactive
NPC2 (NPC intracellular cholesterol transporter 2) [SID442894657]: robust z-score, replicate 1 = 0.771; robust z-score, replicate 2 = -0.606; robust z-score, replicate 3 = -0.428; call = inactive
TENT5D (terminal nucleotidyltransferase 5D) [SID442893895]: robust z-score, replicate 1 = -0.0895; robust z-score, replicate 2 = -0.0571; robust z-score, replicate 3 = 0.143; call = inactive
FYTTD1 (forty-two-three domain containing 1) [SID442891878]: robust z-score, replicate 1 = 0.925; robust z-score, replicate 2 = -0.227; robust z-score, replicate 3 = 0.00755; call = inactive
NEIL3 (nei like DNA glycosylase 3) [SID442897140]: robust z-score, replicate 1 = -0.601; robust z-score, replicate 2 = -0.231; robust z-score, replicate 3 = -0.221; call = inactive
SRSF2 (serine and arginine rich splicing factor 2) [SID442888147]: robust z-score, replicate 1 = 0.624; robust z-score, replicate 2 = 0.538; robust z-score, replicate 3 = 1.17; call = inactive
LOC439987 (retired record) [SID442894775]: robust z-score, replicate 1 = 0.0555; robust z-score, replicate 2 = 0.24; robust z-score, replicate 3 = -0.594; call = inactive

Part of the list above, reformatted.
{"gene":"OR3A2 (olfactory receptor family 3 subfamily A member 2)","PubChem SID":"SID442889211","robust z-score, replicate 1":0.46,"robust z-score, replicate 2":0.529,"robust z-score, replicate 3":0.796,"call":"inactive"}
{"gene":"CLN3 (CLN3 lysosomal/endosomal transmembrane protein, battenin)","PubChem SID":"SID442886151","robust z-score, replicate 1":1.37,"robust z-score, replicate 2":1.38,"robust z-score, replicate 3":1,"call":"inactive"}

Continued:
KIF21B (kinesin family member 21B) [SID442887597]: robust z-score, replicate 1 = 0.785; robust z-score, replicate 2 = 0.958; robust z-score, replicate 3 = 0.896; call = inactive
SEC14L1 (SEC14 like lipid binding 1) [SID442887713]: robust z-score, replicate 1 = 0.868; robust z-score, replicate 2 = 2.17; robust z-score, replicate 3 = -0.467; call = inactive
DTWD1 (DTW motif tRNA-uridine aminocarboxypropyltransferase 1) [SID442895263]: robust z-score, replicate 1 = 0.0152; robust z-score, replicate 2 = 0.172; robust z-score, replicate 3 = -0.64; call = inactive
CC2D1B (coiled-coil and C2 domain containing 1B) [SID442888316]: robust z-score, replicate 1 = 0.589; robust z-score, replicate 2 = 0.538; robust z-score, replicate 3 = 1.1; call = inactive
FLJ35816 (retired record) [SID442896661]: robust z-score, replicate 1 = -0.418; robust z-score, replicate 2 = -0.612; robust z-score, replicate 3 = 0.137; call = inactive
CD177 (CD177 molecule) [SID442896034]: robust z-score, replicate 1 = 0.457; robust z-score, replicate 2 = -0.492; robust z-score, replicate 3 = -0.659; call = inactive
SULT1A2 (sulfotransferase family 1A member 2) [SID442883317]: robust z-score, replicate 1 = 3.11; robust z-score, replicate 2 = 2.94; robust z-score, replicate 3 = 3.8; call = active
INTS4 (integrator complex subunit 4) [SID442904263]: robust z-score, replicate 1 = -1.81; robust z-score, replicate 2 = -1.25; robust z-score, replicate 3 = -1.58; call = inactive
VSIR (V-set immunoregulatory receptor) [SID442900349]: robust z-score, replicate 1 = -1.13; robust z-score, replicate 2 = -0.641; robust z-score, replicate 3 = -0.479; call = inactive
SLC10A2 [SID442884423]: robust z-score, replicate 1 = -2.04; robust z-score, replicate 2 = -2.04; robust z-score, replicate 3 = -2.2; call = active
PTPRN2 (protein tyrosine phosphatase receptor type N2) [SID442886995]: robust z-score, replicate 1 = 0.954; robust z-score, replicate 2 = 0.434; robust z-score, replicate 3 = 1.64; call = inactive
CLINT1 (clathrin interactor 1) [SID442889201]: robust z-score, replicate 1 = 0.327; robust z-score, replicate 2 = 0.753; robust z-score, replicate 3 = 0.707; call = inactive
